The values below come from paper doi:10.1101/2023.09.13.556486.

Amino acid sequences for entries named in this document (tags omitted). A change or cut given only in a name is not applied to a line headed by its entry.
UniProt Q14669: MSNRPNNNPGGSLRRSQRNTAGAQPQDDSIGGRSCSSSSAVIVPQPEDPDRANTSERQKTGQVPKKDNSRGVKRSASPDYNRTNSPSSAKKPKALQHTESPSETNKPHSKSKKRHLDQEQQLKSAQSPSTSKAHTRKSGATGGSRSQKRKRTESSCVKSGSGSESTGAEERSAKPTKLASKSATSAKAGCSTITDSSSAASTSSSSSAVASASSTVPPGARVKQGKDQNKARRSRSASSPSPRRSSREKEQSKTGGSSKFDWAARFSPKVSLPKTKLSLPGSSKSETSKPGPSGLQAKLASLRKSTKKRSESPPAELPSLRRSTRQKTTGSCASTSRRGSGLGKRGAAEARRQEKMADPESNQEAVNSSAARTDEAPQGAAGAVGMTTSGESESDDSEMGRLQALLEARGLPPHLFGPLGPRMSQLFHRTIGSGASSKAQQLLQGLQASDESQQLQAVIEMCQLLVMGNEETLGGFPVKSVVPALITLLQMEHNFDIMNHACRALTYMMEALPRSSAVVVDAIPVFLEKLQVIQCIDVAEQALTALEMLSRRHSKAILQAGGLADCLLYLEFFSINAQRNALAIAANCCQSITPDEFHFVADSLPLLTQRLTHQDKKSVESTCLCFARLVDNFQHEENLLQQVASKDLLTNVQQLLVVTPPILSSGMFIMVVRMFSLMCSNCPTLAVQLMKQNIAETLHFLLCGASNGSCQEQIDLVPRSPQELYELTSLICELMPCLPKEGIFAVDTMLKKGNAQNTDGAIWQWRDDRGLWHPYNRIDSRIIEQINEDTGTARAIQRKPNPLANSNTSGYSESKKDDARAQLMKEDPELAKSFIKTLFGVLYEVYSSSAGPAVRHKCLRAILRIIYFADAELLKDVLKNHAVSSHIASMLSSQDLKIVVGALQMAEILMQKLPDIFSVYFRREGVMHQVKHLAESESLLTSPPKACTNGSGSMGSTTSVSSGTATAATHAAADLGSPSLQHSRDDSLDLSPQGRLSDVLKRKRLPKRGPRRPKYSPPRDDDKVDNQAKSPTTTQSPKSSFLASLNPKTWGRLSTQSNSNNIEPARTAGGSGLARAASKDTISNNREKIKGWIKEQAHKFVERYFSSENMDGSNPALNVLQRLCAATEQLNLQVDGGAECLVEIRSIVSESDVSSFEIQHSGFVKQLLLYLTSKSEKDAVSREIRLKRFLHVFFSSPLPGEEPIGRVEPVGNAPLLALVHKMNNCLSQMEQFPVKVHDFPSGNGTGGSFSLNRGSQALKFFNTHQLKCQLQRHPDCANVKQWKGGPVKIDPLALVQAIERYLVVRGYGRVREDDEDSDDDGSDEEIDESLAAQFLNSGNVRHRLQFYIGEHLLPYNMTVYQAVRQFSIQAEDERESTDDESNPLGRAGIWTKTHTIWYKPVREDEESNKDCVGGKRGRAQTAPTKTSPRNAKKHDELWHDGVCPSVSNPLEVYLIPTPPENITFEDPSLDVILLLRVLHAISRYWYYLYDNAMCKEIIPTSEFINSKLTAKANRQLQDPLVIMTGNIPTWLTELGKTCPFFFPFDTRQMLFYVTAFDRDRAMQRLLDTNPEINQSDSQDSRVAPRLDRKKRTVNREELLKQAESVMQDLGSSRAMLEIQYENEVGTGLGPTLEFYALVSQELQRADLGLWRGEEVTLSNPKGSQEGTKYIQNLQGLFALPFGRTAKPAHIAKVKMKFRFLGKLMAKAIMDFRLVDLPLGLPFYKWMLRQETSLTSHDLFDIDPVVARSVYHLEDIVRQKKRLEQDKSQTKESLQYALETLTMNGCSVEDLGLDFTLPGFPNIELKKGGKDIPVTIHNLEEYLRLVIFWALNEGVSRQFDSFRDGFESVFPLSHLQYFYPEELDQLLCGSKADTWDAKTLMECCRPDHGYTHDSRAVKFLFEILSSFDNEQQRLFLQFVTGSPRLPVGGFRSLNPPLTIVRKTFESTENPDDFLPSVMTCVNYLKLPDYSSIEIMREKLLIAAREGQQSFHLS
UniProt P45973: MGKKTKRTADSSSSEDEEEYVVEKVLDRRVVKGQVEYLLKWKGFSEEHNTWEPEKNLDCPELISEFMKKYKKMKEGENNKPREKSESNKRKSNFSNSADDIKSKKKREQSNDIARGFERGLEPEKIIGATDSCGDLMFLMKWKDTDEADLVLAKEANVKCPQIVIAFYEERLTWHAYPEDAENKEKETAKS
UniProt Q14676: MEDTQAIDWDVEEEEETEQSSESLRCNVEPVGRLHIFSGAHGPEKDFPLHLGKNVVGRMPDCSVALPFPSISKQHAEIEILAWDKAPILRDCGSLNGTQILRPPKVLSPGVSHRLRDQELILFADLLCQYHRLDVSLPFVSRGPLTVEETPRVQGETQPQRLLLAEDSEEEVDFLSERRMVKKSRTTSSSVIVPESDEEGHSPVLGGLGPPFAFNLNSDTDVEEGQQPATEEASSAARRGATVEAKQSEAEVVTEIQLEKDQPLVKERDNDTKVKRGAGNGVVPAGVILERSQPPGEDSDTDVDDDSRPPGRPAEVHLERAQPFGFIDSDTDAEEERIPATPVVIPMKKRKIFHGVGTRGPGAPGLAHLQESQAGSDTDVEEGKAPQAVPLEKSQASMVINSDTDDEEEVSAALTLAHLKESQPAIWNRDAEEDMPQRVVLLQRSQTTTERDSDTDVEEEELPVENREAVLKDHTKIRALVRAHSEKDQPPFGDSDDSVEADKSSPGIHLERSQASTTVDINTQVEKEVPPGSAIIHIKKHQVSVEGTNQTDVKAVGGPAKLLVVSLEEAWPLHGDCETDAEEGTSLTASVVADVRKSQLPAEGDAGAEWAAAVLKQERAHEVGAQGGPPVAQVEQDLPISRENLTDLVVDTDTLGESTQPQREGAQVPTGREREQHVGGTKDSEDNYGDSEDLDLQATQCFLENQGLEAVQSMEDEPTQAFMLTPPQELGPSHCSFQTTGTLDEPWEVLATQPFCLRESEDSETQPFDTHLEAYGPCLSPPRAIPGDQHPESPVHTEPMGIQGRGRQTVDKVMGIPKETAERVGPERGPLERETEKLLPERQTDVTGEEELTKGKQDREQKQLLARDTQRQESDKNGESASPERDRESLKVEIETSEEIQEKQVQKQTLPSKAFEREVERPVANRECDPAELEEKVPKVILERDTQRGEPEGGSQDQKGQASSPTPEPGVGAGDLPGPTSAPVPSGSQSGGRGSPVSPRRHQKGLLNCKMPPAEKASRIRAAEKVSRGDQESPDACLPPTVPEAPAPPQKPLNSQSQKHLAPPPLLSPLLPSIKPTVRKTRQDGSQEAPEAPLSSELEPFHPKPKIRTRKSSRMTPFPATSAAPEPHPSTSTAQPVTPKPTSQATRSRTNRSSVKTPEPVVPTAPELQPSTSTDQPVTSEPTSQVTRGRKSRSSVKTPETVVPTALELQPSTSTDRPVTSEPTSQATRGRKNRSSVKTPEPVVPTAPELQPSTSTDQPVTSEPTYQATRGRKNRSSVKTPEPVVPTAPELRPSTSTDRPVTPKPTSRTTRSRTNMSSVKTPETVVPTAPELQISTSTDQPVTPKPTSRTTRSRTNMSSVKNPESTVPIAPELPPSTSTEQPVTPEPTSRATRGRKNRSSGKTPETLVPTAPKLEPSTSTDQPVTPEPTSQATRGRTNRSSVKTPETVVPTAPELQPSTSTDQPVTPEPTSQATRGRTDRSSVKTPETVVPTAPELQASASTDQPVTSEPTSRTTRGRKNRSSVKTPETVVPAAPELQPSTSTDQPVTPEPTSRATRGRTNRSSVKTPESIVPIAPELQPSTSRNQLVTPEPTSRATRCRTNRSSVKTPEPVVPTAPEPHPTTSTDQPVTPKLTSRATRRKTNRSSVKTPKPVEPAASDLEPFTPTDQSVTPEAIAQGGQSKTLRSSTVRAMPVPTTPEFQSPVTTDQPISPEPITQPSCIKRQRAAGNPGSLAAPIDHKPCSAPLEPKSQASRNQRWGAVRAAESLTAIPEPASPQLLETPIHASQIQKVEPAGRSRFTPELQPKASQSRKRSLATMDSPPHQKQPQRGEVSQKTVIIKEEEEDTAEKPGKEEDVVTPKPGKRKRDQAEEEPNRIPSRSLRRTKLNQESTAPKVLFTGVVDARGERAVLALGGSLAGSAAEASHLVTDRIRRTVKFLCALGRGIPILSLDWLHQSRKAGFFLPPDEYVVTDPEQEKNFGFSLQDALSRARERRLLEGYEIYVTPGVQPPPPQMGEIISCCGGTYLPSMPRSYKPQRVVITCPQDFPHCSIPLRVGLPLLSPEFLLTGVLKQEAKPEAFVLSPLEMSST
UniProt P83916: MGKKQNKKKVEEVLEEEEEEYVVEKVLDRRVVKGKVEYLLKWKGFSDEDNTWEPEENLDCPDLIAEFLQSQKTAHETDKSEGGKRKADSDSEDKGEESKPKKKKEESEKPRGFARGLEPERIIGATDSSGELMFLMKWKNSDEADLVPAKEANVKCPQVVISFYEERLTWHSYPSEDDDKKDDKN
UniProt Q13185: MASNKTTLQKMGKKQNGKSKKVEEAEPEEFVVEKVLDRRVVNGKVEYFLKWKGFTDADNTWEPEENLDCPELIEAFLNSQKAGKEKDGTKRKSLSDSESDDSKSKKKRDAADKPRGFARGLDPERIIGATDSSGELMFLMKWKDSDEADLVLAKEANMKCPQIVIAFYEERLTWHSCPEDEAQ
UniProt Q969G3: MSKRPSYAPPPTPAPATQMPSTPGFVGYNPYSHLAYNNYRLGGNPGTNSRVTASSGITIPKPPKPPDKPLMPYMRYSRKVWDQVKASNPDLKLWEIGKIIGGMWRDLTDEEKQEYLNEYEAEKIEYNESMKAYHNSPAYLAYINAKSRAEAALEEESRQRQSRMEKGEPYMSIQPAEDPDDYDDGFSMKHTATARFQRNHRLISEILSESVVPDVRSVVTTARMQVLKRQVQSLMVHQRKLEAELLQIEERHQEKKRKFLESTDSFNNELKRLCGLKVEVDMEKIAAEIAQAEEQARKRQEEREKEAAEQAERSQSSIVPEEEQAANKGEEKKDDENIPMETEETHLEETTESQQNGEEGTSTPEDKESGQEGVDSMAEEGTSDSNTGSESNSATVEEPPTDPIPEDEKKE

Results are given in words; binding and its absence hold for the method and conditions named. In cells and extracts the contact can be indirect. Here binding means that the protein was enriched with, or labelled near, the bait; the list need not be complete.

The target of this assay is NBirA*-FLAG-TRIP12 (Thyroid hormone Receptor Interacting Protein 12 fused to the biotin ligase NBirA*(R118G)-FLAG) (human) (UniProt Q14669). The assay is described as follows: proximity labelling.
Take “heterochromatin protein 1 (HP1) isoform α (CBX5) (from UniProt P45973 1-191)”: the binding result was “binds”.

On to “Mediator of DNA damage checkpoint 1 (MDC1) (from UniProt Q14676 1-2089)”, for which the binding result is “binds”. For “heterochromatin protein 1 (HP1) isoform β (CBX1) (from UniProt P83916 1-185)” the value was “binds”; for “heterochromatin protein 1 (HP1) isoform γ (CBX3) (from UniProt Q13185 1-183)”, “binds”; for “SWI/SNF-Related Matrix-Associated Actin-Dependent Regulator Of Chromatin Subfamily E Member 1 (SMARCE1) (from UniProt Q969G3 1-411)”, “binds”.
